Data published in paper doi:10.1101/712448.
Read-outs that look alike come from different tables or passages of the source. Results are given in words; binding and its absence hold for the method and conditions named. In cells and extracts the contact can be indirect. Some results given as binding are weak or reduced against the parent protein; the word gives no strength. Where a sequence is shown, tags or fusion partners need not be part of it.

Chains of the proteins cited; added tags and fusions are not shown.
UniProt Q01959, whole entry: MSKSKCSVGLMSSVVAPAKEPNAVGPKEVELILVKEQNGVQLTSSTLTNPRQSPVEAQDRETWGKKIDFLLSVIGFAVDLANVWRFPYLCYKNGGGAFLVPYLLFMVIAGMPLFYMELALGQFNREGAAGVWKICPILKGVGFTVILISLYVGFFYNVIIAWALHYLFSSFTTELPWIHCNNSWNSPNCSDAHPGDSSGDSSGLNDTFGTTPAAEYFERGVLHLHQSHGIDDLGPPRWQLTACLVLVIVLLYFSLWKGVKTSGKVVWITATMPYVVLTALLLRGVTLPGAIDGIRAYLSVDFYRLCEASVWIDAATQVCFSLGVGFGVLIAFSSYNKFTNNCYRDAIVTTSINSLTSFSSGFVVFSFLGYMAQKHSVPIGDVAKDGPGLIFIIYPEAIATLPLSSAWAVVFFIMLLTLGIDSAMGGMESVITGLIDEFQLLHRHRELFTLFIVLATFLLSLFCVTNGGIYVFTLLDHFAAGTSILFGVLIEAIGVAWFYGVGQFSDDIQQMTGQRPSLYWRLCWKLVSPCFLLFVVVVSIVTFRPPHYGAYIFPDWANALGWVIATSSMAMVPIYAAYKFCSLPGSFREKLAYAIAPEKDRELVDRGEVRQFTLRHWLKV
UniProt Q07912, whole entry: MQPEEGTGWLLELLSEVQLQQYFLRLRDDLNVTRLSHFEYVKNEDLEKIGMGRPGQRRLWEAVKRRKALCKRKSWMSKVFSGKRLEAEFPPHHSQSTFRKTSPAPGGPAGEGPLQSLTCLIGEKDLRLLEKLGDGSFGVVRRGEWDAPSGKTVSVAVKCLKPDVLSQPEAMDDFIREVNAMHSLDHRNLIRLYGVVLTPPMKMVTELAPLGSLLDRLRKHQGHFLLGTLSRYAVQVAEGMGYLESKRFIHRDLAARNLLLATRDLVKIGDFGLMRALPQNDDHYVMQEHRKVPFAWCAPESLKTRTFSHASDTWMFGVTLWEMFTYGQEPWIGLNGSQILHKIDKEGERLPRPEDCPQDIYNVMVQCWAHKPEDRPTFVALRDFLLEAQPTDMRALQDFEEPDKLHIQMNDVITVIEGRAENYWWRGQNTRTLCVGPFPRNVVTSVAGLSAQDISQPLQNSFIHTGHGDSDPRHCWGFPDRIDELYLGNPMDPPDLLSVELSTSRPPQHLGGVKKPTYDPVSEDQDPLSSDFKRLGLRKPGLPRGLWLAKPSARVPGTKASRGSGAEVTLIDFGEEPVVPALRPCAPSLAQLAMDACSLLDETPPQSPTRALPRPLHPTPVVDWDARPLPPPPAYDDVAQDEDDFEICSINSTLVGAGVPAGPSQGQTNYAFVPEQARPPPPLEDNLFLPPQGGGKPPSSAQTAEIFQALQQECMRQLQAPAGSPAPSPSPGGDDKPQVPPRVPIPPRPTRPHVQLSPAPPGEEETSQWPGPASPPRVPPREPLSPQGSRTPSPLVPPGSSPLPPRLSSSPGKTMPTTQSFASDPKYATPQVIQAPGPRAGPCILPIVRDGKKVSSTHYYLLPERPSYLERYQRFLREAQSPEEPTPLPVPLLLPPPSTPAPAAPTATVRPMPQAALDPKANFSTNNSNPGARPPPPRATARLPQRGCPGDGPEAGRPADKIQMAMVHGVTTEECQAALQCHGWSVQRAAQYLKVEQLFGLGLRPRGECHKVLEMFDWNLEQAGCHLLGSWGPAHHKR
UniProt Q92963, whole entry: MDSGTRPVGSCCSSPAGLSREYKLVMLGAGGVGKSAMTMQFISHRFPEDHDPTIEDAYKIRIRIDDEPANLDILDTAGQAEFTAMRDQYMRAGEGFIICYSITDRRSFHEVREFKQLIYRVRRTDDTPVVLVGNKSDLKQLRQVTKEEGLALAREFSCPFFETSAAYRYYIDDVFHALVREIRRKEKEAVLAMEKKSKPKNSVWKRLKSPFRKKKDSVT

Tests used:
[1] = target: BBS-DAT (bungarotoxin binding site-tagged human dopamine transporter) (human) (UniProt Q01959); assay: pull-down
[2] = target: BBS-tagged DAT/C-S (DAT1-583/SERT601-630) (human) (UniProt Q01959); assay: pull-down
[3] = target: BBS-tagged N-S/DAT (SERT1-78/DAT60-620) (human) (UniProt P31645); assay: pull-down
[4] = target: BBS-tagged S/DAT/S (SERT1-78/DAT60-583/SERT601-630) (human) (UniProt P31645); assay: pull-down
[5] = target: T1, CFP-N-S/DAT (SERT1-78/DAT60-620) (human) (UniProt P31645+Q01959); assay: FRET or BRET
CFP-DAT (human) = CFP-DAT (human) (UniProt Q01959); assay: FRET or BRET
[6] = target: CFP-DAT/C-S (DAT1-583/SERT601-630) (human) (UniProt Q01959+P31645); assay: FRET or BRET
[7] = target: T1, CFP-N-S/DAT (SERT1-78/DAT60-620) (human); assay: FRET or BRET; remark: listed apart in the source
[8] = target: CFP-S/DAT/S (SERT1-78/DAT60-583/SERT601-630) (human) (UniProt P31645+Q01959); assay: FRET or BRET

With Ack1-HA (from UniProt Q07912 1-1038) as the molecule, how does the binding [1] read?
Its binding is “binds”.

GFP-Rit1 (from UniProt Q92963 1-219) was tested. Which binding [1] did it give?
The binding was “no binding”.

B1: HA-Rit2 (protein, UniProt Q99578 1-217)
chain: MEVENEASCSPGSASGGSREYKVVMLGAGGVGKSAMTMQFISHQFPDYHDPTIEDAYKTQVRIDNEPAYLDILDTAGQAEFTAMREQYMRGGEGFIICYSVTDRQSFQEAAKFKELIFQVRHTYEIPLVLVGNKIDLEQFRQVSTEEGLSLAQEYNCGFFETSAALRFCIDDAFHGLVREIRKKESMPSLMEKKLKRKDSLWKKLKGSLKKKRENMT
Which results are given for B1?
binding [1]: binds; binding [2]: binds; binding [3]: binds; binding [4]: binds

B2: YFP-Rit2 (protein, UniProt Q99578 1-217)
chain: MEVENEASCSPGSASGGSREYKVVMLGAGGVGKSAMTMQFISHQFPDYHDPTIEDAYKTQVRIDNEPAYLDILDTAGQAEFTAMREQYMRGGEGFIICYSVTDRQSFQEAAKFKELIFQVRHTYEIPLVLVGNKIDLEQFRQVSTEEGLSLAQEYNCGFFETSAALRFCIDDAFHGLVREIRKKESMPSLMEKKLKRKDSLWKKLKGSLKKKRENMT
For B2, which binding [5] is on record?
Its binding is “binds”.

What about the binding (CFP-DAT (human)) of the same molecule?
Its binding is “binds”.

And the binding [6]?
Its binding is “binds”.

And the binding [7]?
The binding was “binds”.

And the binding [8]?
Its binding is “binds”.
